Structures were worked out from names or drawings and are uncertain.
Biological target: human recombinant kinase full-length AKT1 E17K (Homo sapiens, UniProt P31749, E17K)
Test: AKT1 E17K kinase assay (TR-FRET, Lance)
Conditions: read-out: AKT1 E17K Lance IC50; 0.6 nM AKT1 E17K, 50 nM Ulight-CREBtide, either 50 μM ATP or 2 mM ATP (not specified which), 60 min at RT

Protein sequences, listed by entry. Tags and fused reporters are not part of them.
UniProt P31749, whole entry E17K: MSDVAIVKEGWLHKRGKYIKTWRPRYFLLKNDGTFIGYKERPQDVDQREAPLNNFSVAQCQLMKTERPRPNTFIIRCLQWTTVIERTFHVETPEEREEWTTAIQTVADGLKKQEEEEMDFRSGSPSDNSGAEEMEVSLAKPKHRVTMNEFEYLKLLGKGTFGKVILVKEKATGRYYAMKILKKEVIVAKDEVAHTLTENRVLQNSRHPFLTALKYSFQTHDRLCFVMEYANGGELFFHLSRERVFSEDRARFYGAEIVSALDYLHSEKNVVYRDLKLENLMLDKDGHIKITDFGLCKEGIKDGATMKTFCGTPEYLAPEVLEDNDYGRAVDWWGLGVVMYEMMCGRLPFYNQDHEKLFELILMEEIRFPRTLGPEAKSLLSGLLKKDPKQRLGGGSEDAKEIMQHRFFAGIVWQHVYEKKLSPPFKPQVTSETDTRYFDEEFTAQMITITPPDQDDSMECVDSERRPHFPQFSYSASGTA

Cc1cc(C(=O)Nc2ccc(-n3c(-c4cccnc4N)nc4ccc(-c5ccccc5)nc43)cn2)c(C)cc1C(=O)O
IC50: 200 to 500 nM

From US20260200919A1, “SUBSTITUTED AMINOPYRIDINE COMPOUNDS AND METHODS OF TREATING DISEASE USING SAME” (Atavistik Bio, Inc., priority 2023, published 2026)
